Laboratory results taken from PMC7862700.
The entries are a selection whose mix differs from that of the whole data set. At the low end of the ranking the order means little.

Protein sequences, listed by entry. Tags and fused reporters are not part of them. Lines headed by an entry give the natural chain unless they say otherwise; changes in a name come on top.
UniProt P41212: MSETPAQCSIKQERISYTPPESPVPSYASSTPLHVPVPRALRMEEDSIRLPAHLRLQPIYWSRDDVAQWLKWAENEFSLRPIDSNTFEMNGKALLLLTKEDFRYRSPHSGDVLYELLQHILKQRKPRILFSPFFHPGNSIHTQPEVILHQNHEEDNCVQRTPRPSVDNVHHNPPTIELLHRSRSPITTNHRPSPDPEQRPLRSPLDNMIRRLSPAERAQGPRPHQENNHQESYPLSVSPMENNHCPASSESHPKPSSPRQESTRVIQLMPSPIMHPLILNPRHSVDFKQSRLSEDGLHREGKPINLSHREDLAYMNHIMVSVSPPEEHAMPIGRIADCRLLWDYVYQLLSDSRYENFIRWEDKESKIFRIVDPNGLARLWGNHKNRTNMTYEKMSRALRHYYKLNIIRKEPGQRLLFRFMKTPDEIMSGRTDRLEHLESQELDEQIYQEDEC

molecular target: ETV6 (UniProt P41212); experiment: DAPPL (digital affinity profiling via proximity ligation, sequencing); conditions: 10 mM Tris-HCl pH 7.5, 50 mM NaCl, 1 mM DTT, 4% glycerol, room temperature, 30 min; GST-TFs on glutathione beads, 16-mer random dsDNA library, 0.1% …; high values mean tight binding; double strand, one strand shown; scale: fold enrichment (6-mer frequency, TF over GST control)

GGCCCT was tested. Which binding signal did it give?
Its binding signal is 0.983.

How did the binding signal turn out when TGTTCG was run?
Its binding signal is 0.996.

TTCGGC was tested. Which binding signal did it give?
Its binding signal is 0.989.

Which binding signal does the source give for TGAACA here?
Its binding signal is 1.21.

TATGGG was tested. Which binding signal did it give?
Its binding signal is 1.34.

How did the binding signal turn out when ATGCGC was run?
Its binding signal is 1.22.

For CGGTTT, which binding signal is on record?
Its binding signal is 1.23.

How did the binding signal turn out when TCCAAG was run?
Its binding signal is 1.03.

With ACGGAA as the sequence, how does the binding signal read?
Its binding signal is 2.14.

For ACCGGC, which binding signal is on record?
The binding signal was 1.31.

Which binding signal does the source give for CCCCTC here?
Its binding signal is 1.28.

Which binding signal does the source give for GTTTTA here?
The binding signal was 1.13.

CGATGC was tested. Which binding signal did it give?
The binding signal was 0.993.

How did the binding signal turn out when GCACAT was run?
The binding signal was 1.14.

With CCTTCC as the sequence, how does the binding signal read?
Its binding signal is 2.74.

Which binding signal does the source give for GCGTTT here?
Its binding signal is 1.04.

CTGTCT was tested. Which binding signal did it give?
The binding signal was 1.32.

How did the binding signal turn out when TACGCA was run?
The binding signal was 1.18.

For CAAAAG, which binding signal is on record?
The binding signal was 1.01.

How did the binding signal turn out when AATATT was run?
Its binding signal is 1.46.

ATGCGA was tested. Which binding signal did it give?
The binding signal was 1.23.

With TCGAAC as the sequence, how does the binding signal read?
Its binding signal is 1.

Which binding signal does the source give for CGACAA here?
Its binding signal is 1.31.

With TTTGCC as the sequence, how does the binding signal read?
Its binding signal is 1.11.

CTGACC was tested. Which binding signal did it give?
The binding signal was 1.32.

Which binding signal does the source give for ATTTAA here?
The binding signal was 1.21.

Which binding signal does the source give for TAATAT here?
Its binding signal is 1.23.

For CTAAAT, which binding signal is on record?
The binding signal was 1.3.

Which binding signal does the source give for TGCCAC here?
The binding signal was 1.24.

Which binding signal does the source give for GCTGCG here?
Its binding signal is 0.96.

Which binding signal does the source give for ACTGCA here?
The binding signal was 1.2.

How did the binding signal turn out when CGCACT was run?
Its binding signal is 1.25.

AAAACG was tested. Which binding signal did it give?
The binding signal was 1.25.

AGTTTC was tested. Which binding signal did it give?
Its binding signal is 1.29.

Which binding signal does the source give for ATTTTG here?
Its binding signal is 1.24.

For GCCTGC, which binding signal is on record?
The binding signal was 1.05.

Which binding signal does the source give for TAGAAT here?
The binding signal was 1.15.

With AACCGC as the sequence, how does the binding signal read?
The binding signal was 1.19.

Which binding signal does the source give for GGCCTC here?
Its binding signal is 1.09.
